# Measured values as given in the supplement of paper PMC10849652.
# Protein sequences, listed by entry. Tags and fused reporters are not part of them. Lines headed by an entry give the natural chain unless they say otherwise; changes in a name come on top.
# UniProt Q9NXN4: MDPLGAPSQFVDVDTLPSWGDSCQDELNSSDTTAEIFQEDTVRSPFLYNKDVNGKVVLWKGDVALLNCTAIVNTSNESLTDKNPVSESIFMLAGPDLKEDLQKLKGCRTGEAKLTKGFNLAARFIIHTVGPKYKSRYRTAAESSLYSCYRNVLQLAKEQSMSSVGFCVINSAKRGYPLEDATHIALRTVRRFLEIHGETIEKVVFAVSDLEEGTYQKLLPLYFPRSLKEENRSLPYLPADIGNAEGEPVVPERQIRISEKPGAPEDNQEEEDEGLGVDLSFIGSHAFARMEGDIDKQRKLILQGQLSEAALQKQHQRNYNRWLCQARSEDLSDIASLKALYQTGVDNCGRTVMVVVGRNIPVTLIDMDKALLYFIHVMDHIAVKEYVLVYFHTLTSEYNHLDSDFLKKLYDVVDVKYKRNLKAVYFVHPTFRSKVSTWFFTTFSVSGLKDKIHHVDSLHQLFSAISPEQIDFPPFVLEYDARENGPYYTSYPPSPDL
# UniProt P15976: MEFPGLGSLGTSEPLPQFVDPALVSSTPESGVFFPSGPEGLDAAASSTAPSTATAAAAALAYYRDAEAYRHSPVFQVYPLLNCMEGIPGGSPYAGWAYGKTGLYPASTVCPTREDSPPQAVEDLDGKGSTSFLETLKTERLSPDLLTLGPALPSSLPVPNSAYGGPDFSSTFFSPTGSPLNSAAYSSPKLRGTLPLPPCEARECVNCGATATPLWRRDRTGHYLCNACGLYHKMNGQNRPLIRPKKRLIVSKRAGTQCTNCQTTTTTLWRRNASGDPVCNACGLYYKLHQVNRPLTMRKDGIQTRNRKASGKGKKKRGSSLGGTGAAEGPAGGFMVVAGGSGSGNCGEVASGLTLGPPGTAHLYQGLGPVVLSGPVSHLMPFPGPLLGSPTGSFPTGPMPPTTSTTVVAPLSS
# UniProt P19440: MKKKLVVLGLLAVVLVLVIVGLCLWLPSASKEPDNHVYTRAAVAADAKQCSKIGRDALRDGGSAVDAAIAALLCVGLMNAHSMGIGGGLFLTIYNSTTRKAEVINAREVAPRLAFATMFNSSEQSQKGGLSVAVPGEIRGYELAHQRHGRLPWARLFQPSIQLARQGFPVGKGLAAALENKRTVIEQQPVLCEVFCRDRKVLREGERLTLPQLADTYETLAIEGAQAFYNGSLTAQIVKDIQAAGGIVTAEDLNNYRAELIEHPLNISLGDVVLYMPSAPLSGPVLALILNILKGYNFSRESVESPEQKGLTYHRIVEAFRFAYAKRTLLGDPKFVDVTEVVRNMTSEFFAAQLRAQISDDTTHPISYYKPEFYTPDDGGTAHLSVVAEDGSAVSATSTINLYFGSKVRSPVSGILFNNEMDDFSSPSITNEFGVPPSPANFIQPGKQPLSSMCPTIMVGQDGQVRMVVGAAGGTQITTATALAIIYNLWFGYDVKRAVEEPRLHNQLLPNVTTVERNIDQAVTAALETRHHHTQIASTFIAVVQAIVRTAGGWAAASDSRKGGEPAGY
# UniProt Q14697: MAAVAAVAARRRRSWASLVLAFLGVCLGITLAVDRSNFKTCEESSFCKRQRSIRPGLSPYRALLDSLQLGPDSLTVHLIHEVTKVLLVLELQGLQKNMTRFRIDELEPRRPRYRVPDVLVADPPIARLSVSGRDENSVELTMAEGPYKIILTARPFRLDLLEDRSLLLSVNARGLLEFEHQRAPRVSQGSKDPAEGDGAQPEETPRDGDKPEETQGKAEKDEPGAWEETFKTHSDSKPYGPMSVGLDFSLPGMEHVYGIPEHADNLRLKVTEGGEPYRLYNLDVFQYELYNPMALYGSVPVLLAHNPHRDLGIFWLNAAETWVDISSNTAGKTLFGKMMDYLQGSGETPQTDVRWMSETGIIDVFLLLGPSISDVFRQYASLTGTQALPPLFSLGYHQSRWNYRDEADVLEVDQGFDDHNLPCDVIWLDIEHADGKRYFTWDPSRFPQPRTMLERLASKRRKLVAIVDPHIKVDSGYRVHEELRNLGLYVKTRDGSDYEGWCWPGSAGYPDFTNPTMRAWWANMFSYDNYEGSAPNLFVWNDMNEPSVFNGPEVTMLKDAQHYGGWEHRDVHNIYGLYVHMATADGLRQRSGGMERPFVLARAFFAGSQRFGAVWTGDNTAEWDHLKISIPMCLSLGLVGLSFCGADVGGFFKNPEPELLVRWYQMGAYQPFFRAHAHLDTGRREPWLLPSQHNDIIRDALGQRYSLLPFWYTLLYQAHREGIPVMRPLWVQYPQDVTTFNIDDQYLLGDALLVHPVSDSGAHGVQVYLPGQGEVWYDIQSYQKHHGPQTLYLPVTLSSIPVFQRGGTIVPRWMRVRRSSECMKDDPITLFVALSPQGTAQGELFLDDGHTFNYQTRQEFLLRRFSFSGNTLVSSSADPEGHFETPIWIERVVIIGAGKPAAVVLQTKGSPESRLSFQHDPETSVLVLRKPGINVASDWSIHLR
# UniProt Q96QD9: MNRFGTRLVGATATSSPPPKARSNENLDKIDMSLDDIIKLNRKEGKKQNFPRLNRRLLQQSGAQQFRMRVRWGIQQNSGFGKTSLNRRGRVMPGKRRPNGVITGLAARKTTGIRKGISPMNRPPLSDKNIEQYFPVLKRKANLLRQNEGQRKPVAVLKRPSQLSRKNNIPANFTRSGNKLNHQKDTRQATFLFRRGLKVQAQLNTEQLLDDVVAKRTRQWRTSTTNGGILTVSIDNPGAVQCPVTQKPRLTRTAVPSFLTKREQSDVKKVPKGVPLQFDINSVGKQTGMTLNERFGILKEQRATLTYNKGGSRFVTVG
# UniProt Q9P0K8: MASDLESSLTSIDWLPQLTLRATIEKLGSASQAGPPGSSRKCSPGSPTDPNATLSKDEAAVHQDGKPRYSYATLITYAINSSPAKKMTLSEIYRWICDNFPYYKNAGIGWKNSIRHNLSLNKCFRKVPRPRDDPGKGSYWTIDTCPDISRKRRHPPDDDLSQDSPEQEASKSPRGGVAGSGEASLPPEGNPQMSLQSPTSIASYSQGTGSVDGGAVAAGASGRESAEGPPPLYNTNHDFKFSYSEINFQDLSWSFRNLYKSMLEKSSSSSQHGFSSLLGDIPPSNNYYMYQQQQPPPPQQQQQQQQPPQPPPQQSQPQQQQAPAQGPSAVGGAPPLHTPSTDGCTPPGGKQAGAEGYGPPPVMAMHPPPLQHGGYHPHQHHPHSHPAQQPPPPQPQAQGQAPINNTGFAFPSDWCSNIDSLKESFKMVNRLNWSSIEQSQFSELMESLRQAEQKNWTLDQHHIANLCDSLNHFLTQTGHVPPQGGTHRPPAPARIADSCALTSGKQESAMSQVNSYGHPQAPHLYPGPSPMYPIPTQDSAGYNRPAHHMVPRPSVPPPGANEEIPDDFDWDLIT
# UniProt P14136, whole entry, looked up: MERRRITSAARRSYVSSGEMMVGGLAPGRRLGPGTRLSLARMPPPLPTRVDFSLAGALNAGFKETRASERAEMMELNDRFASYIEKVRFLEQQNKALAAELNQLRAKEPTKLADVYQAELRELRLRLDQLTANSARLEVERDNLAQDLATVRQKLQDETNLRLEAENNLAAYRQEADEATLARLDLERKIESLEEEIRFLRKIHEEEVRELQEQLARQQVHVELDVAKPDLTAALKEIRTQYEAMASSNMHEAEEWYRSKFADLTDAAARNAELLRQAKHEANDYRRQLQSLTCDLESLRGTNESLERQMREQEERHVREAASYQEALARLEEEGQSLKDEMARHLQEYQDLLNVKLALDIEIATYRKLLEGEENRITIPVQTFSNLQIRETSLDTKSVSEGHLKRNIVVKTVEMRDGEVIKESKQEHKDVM
# UniProt P27469: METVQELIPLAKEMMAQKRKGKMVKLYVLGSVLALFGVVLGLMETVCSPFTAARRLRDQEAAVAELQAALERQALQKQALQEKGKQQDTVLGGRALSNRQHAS
# UniProt Q9BVM4: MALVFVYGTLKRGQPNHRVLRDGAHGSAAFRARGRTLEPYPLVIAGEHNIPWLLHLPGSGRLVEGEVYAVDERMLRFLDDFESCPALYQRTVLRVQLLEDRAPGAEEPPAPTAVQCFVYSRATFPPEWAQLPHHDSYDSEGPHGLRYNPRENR
# UniProt Q06547, whole entry, looked up: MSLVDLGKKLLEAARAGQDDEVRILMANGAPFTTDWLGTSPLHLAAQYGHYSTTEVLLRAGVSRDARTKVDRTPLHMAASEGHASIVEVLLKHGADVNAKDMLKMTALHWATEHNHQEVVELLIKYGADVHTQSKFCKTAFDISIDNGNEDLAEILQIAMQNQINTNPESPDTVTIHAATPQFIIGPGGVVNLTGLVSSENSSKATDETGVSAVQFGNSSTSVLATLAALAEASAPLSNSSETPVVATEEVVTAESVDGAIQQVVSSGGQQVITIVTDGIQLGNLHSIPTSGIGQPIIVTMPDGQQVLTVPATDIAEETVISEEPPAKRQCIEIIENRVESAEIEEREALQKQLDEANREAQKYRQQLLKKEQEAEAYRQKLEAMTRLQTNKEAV
# UniProt Q9H840: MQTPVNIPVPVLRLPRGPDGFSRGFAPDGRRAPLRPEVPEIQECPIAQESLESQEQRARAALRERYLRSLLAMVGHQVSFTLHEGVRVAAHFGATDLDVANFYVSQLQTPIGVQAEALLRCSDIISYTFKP
# UniProt Q969S9: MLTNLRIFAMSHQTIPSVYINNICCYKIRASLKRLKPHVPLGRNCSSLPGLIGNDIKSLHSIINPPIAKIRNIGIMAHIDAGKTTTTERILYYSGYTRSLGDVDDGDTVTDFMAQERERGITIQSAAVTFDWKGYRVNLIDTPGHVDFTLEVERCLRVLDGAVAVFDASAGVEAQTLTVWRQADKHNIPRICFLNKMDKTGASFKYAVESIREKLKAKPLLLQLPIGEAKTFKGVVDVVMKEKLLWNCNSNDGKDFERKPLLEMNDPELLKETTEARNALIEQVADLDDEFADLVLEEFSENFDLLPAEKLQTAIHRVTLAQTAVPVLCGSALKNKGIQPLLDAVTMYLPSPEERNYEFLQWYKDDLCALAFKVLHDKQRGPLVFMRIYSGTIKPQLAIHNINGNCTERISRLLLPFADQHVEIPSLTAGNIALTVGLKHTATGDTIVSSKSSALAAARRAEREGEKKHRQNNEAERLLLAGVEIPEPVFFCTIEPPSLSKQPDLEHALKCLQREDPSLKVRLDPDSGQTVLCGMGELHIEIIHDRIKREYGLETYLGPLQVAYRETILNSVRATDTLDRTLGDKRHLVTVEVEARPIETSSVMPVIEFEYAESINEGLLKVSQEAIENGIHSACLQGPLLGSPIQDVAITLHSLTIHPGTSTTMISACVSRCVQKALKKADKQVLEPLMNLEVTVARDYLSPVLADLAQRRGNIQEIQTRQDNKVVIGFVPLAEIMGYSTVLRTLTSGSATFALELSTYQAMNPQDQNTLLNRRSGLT
# UniProt Q9NXC2: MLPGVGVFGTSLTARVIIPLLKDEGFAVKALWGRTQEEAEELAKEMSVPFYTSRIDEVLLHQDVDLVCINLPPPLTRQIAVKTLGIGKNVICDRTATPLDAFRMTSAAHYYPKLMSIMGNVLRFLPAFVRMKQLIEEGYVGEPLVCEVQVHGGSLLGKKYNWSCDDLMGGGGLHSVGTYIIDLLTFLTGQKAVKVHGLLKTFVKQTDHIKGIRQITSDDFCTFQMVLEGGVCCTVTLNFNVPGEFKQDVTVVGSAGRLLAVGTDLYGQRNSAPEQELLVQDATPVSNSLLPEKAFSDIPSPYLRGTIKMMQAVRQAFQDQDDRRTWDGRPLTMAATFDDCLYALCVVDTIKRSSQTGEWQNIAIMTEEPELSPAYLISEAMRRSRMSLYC
# UniProt P22466: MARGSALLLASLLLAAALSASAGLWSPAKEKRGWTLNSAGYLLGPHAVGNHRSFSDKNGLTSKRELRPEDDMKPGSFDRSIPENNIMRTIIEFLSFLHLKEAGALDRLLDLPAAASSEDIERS
# UniProt Q9NWZ8: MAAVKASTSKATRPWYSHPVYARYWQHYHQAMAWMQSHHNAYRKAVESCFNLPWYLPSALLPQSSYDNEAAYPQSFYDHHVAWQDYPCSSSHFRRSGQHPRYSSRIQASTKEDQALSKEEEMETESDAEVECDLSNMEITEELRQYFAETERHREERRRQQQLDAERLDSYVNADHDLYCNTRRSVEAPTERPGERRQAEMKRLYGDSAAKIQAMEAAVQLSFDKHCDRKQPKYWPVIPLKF
# UniProt Q9BZ67: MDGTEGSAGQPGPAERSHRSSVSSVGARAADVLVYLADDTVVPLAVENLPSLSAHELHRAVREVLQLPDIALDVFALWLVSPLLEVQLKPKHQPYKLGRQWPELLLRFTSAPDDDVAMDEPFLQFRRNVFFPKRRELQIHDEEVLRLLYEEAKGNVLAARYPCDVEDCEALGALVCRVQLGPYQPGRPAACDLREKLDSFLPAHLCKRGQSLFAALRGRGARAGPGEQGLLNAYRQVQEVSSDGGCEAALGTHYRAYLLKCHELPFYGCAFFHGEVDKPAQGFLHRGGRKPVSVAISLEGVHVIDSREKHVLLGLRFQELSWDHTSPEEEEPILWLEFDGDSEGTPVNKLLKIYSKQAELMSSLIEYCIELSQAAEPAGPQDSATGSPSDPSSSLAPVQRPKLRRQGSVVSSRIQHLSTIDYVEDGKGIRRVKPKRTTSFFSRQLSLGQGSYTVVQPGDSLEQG
# This is one part of the list.
# Experiments:
# Experiment in all cases: log2 fold change, soluble protein after heating vs DMSO (PISA); higher = thermal stabilisation; K562 cells, 10 uM, 30 min; active = over 0.2 and 3.5 SD of the protein, either way, in both replicates (recomputed)
# [1] = compound: CC1=C(C=C(C=C1)NC(=O)C2=CC(=CC=C2)N(C)C)NC(=O)C3=CC=C(C=C3)O
# How it was run: (§1)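 K562 cells at 2×10^6 cells/mL were given 10 μM compound for 30 min. Aliquots then went through 3 min of heating across 48°C-58°C, were pooled, and were extracted in PBS with 0.5% NP-40 at 4°C, and the supernatant after 21,000xg for 90 min was quantified by TMTpro 16plex LC-MS/MS with channel sums equalised. Thermal stability relative to control samples, from duplicates, is given as log2 fold change.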
# [2] = compound: CC1=C(C=C(C=C1)NC(=O)C2=CC(=CC=C2)C(C)(C)C#N)NC3=CC4=C(C=C3)N=CN(C4=O)C
# How it was run: as §1
# [3] = compound: CC1=NC(=CC=C1)C2=C(N=C(N2)C(C)(C)C)C3=CC4=NC=CN=C4C=C3
# How it was run: as §1
# Nexturastat A = compound: CCCCN(Cc1ccc(C(=O)NO)cc1)C(=O)Nc1ccccc1 [Nexturastat A]
# How it was run: as §1
# [4] = compound: CCCc1cc(C)[nH]c(=O)c1CNC(=O)c1cc(-c2ccnc(N3CCN(C)CC3)c2)cc2c1cnn2C(C)C
# How it was run: as §1
# givinostat = compound: CCN(CC)Cc1ccc2cc(COC(=O)Nc3ccc(C(=O)NO)cc3)ccc2c1 [givinostat]
# How it was run: as §1
# [5] = compound: CC1=CC=C(C=C1)SC2=C3C=C(SC3=CN=C2)C(=O)N
# How it was run: as §1
# [6] = compound: CCCS(=O)(=O)Nc1ccc(F)c(C(=O)c2c[nH]c3ncc(Cl)cc23)c1F
# How it was run: as §1
# barasertib = compound: CCN(CCCOc1ccc2c(Nc3cc(CC(=O)Nc4cccc(F)c4)[nH]n3)ncnc2c1)CCOP(=O)(O)O [barasertib]
# How it was run: as §1
# vemurafenib = compound: CCCS(=O)(=O)Nc1ccc(F)c(C(=O)c2c[nH]c3ncc(-c4ccc(Cl)cc4)cc23)c1F [vemurafenib]
# How it was run: as §1
target,measurement,setting,value
FRAT1 (UniProt Q92837),log2 fold change,[1],inactive: 0.088
GDAP2 (UniProt Q9NXN4),log2 fold change,[2],inactive: 0.072
same,log2 fold change,[3],inactive: -0.091
same,log2 fold change,Nexturastat A,inactive: 0.163
same,log2 fold change,[4],inactive: 0.225
same,log2 fold change,givinostat,inactive: 0.238
FUNDC1 (UniProt Q8IVP5),log2 fold change,[2],inactive: 0.007
same,log2 fold change,[5],inactive: 0.118
same,log2 fold change,[6],inactive: -0.013
same,log2 fold change,[4],inactive: -0.285
same,log2 fold change,barasertib,inactive: 0.052
FZD5 (UniProt Q13467),log2 fold change,[2],inactive: -0.166
same,log2 fold change,[5],inactive: -0.033
same,log2 fold change,Nexturastat A,inactive: 0.118
same,log2 fold change,[6],inactive: -0.26
same,log2 fold change,[4],inactive: -0.124
same,log2 fold change,givinostat,inactive: 0.237
same,log2 fold change,barasertib,inactive: 0.16
GBA2 (UniProt Q9HCG7),log2 fold change,[2],inactive: -0.079
same,log2 fold change,[5],inactive: -0.043
same,log2 fold change,[3],inactive: 0
same,log2 fold change,Nexturastat A,inactive: 0.051
same,log2 fold change,vemurafenib,inactive: 0
same,log2 fold change,[6],inactive: -0.032
same,log2 fold change,[4],inactive: -0.076
same,log2 fold change,givinostat,inactive: -0.02
same,log2 fold change,barasertib,inactive: 0.008
FOXRED2 (UniProt Q8IWF2),log2 fold change,[1],inactive: -0.115
same,log2 fold change,[5],inactive: -0.087
same,log2 fold change,[3],inactive: -0.078
same,log2 fold change,Nexturastat A,inactive: 0.018
same,log2 fold change,vemurafenib,inactive: -0.017
same,log2 fold change,[6],inactive: -0.172
same,log2 fold change,[4],inactive: 0.013
same,log2 fold change,givinostat,inactive: 0.028
FTSJ1 isoform 2 (UniProt Q9UET6),log2 fold change,[2],inactive: -0.083
same,log2 fold change,givinostat,inactive: 0.041
FZD1 (UniProt Q9UP38),log2 fold change,[2],inactive: -0.054
same,log2 fold change,Nexturastat A,inactive: 0.192
same,log2 fold change,vemurafenib,inactive: 0.145
same,log2 fold change,givinostat,inactive: 0.382
same,log2 fold change,barasertib,inactive: 0.306
GATA1 (UniProt P15976),log2 fold change,[2],inactive: -0.05
same,log2 fold change,[1],inactive: 0.02
same,log2 fold change,[5],inactive: -0.085
same,log2 fold change,[3],inactive: -0.029
same,log2 fold change,Nexturastat A,inactive: -0.104
same,log2 fold change,vemurafenib,inactive: -0.06
same,log2 fold change,[6],inactive: -0.035
same,log2 fold change,[4],inactive: -0.003
same,log2 fold change,givinostat,inactive: -0.047
same,log2 fold change,barasertib,inactive: -0.034
FTSJ3 (UniProt Q8IY81),log2 fold change,[2],inactive: -0.036
same,log2 fold change,[1],inactive: -0.02
same,log2 fold change,[5],inactive: 0.059
same,log2 fold change,[6],inactive: -0.201
same,log2 fold change,givinostat,inactive: 0.051
GGT1 (UniProt P19440),log2 fold change,[2],inactive: -0.01
same,log2 fold change,[5],inactive: 0.015
same,log2 fold change,[3],inactive: 0.009
same,log2 fold change,Nexturastat A,inactive: 0.178
same,log2 fold change,[6],inactive: 0.02
same,log2 fold change,[4],inactive: -0.08
same,log2 fold change,givinostat,inactive: 0.031
same,log2 fold change,barasertib,inactive: -0.059
FUT1 (UniProt P19526),log2 fold change,[2],inactive: -0.198
same,log2 fold change,Nexturastat A,inactive: -0.003
GGA2 (UniProt Q9UJY4),log2 fold change,[2],inactive: -0.015
same,log2 fold change,[1],inactive: 0.033
same,log2 fold change,[5],inactive: -0.047
same,log2 fold change,[3],inactive: 0.06
same,log2 fold change,Nexturastat A,active: 0.582
same,log2 fold change,vemurafenib,inactive: 0.053
same,log2 fold change,[6],inactive: 0.017
same,log2 fold change,[4],inactive: -0.059
same,log2 fold change,givinostat,inactive: -0.03
same,log2 fold change,barasertib,inactive: 0.051
GANAB (UniProt Q14697),log2 fold change,[5],inactive: -0.786
same,log2 fold change,[6],inactive: -0.774
same,log2 fold change,[4],inactive: 0.607
GALNT7 (UniProt H0YAH3),log2 fold change,[3],inactive: 0.14
same,log2 fold change,Nexturastat A,inactive: 0.293
same,log2 fold change,vemurafenib,inactive: 0.121
same,log2 fold change,barasertib,inactive: -0.025
GDPD3 (UniProt Q7L5L3),log2 fold change,[5],inactive: -0.117
same,log2 fold change,Nexturastat A,inactive: -0.019
same,log2 fold change,vemurafenib,inactive: 0.173
same,log2 fold change,[6],inactive: -0.285
same,log2 fold change,givinostat,inactive: 0.026
FRMPD3 (UniProt Q5JV73),log2 fold change,[1],inactive: -0.008
same,log2 fold change,Nexturastat A,inactive: 0.207
same,log2 fold change,vemurafenib,inactive: -0.324
same,log2 fold change,givinostat,inactive: -0.066
same,log2 fold change,barasertib,inactive: 0.112
GDPGP1 (UniProt Q6ZNW5),log2 fold change,[5],inactive: -0.012
same,log2 fold change,[6],inactive: 0.003
same,log2 fold change,[4],inactive: -0.053
same,log2 fold change,givinostat,inactive: 0.177
GAPDH isoform 2 (UniProt P04406),log2 fold change,[4],inactive: -0.311
same,log2 fold change,givinostat,inactive: 0.057
GALNT3 (UniProt Q14435),log2 fold change,givinostat,inactive: -0.109
G6PC3 (UniProt Q9BUM1),log2 fold change,[5],inactive: -0.059
same,log2 fold change,vemurafenib,inactive: 0.081
same,log2 fold change,[6],inactive: 0.159
same,log2 fold change,[4],inactive: -0.042
same,log2 fold change,givinostat,inactive: 0.093
FUT10 isoform 2 (UniProt Q6P4F1),log2 fold change,Nexturastat A,inactive: -0.278
GAGE1 (UniProt Q13065),log2 fold change,[4],inactive: -0.177
GFOD2 (UniProt Q3B7J2),log2 fold change,Nexturastat A,inactive: 0.013
GDF15 (UniProt Q99988),log2 fold change,[1],inactive: -0.03
same,log2 fold change,[5],inactive: -0.059
same,log2 fold change,[3],inactive: 0.018
same,log2 fold change,vemurafenib,inactive: -0.024
same,log2 fold change,[6],inactive: -0.111
same,log2 fold change,[4],inactive: 0.1
same,log2 fold change,barasertib,inactive: -0.148
GBE1 (UniProt Q04446),log2 fold change,[1],inactive: 0.08
same,log2 fold change,[5],inactive: 0.128
same,log2 fold change,[3],inactive: 0.014
same,log2 fold change,Nexturastat A,inactive: 0
same,log2 fold change,vemurafenib,inactive: 0.162
same,log2 fold change,[6],inactive: 0.065
same,log2 fold change,[4],inactive: 0.005
same,log2 fold change,givinostat,inactive: 0.038
same,log2 fold change,barasertib,inactive: 0.109
GDPD5 (UniProt Q8WTR4),log2 fold change,[3],inactive: 0.187
same,log2 fold change,Nexturastat A,inactive: 0.066
same,log2 fold change,barasertib,inactive: 0.161
FYTTD1 (UniProt Q96QD9),log2 fold change,Nexturastat A,inactive: 0.065
FOXJ2 (UniProt Q9P0K8),log2 fold change,vemurafenib,inactive: 0.171
GFAP isoform 2 (UniProt P14136),log2 fold change,[4],inactive: -0.227
GATC (UniProt O43716),log2 fold change,[1],inactive: -0.217
same,log2 fold change,[5],inactive: -0.064
same,log2 fold change,[3],inactive: 0.057
same,log2 fold change,Nexturastat A,inactive: -0.378
same,log2 fold change,vemurafenib,inactive: 0.059
same,log2 fold change,[6],inactive: -0.003
same,log2 fold change,[4],inactive: -0.024
same,log2 fold change,barasertib,inactive: 0.144
FZR1 (UniProt Q9UM11),log2 fold change,[3],inactive: -0.15
G0S2 (UniProt P27469),log2 fold change,[4],inactive: 0.067
GDI2 (UniProt Q5SX86),log2 fold change,[1],inactive: 0.009
same,log2 fold change,[3],inactive: 0.049
same,log2 fold change,Nexturastat A,inactive: -0.154
same,log2 fold change,givinostat,inactive: 0.1
same,log2 fold change,barasertib,inactive: -0.004
FUT4 (UniProt P22083),log2 fold change,[3],inactive: 0.2
GGACT (UniProt Q9BVM4),log2 fold change,[1],inactive: 0.066
same,log2 fold change,[4],inactive: 0.013
FRYL isoform 2 (UniProt O94915),log2 fold change,[1],inactive: 0.029
same,log2 fold change,[5],inactive: -0.023
same,log2 fold change,Nexturastat A,inactive: 0.102
same,log2 fold change,vemurafenib,inactive: 0.076
same,log2 fold change,[6],inactive: 0.128
GABPB1 isoform 3 (UniProt Q06547),log2 fold change,[5],inactive: 0.224
same,log2 fold change,vemurafenib,inactive: 0.112
same,log2 fold change,[6],inactive: -0.049
same,log2 fold change,[4],inactive: -0.007
same,log2 fold change,barasertib,inactive: 0.071
GCC1 (UniProt Q96CN9),log2 fold change,[1],inactive: -0.081
same,log2 fold change,[3],inactive: -0.2
same,log2 fold change,Nexturastat A,inactive: -0.036
same,log2 fold change,givinostat,inactive: 0.16
GEMIN7 (UniProt Q9H840),log2 fold change,Nexturastat A,inactive: -0.12
same,log2 fold change,[4],inactive: 0.088
same,log2 fold change,givinostat,inactive: -0.285
G6PD (UniProt E7EUI8),log2 fold change,[3],inactive: 0.14
GFM2 (UniProt Q969S9),log2 fold change,[4],inactive: 0.177
same,log2 fold change,barasertib,inactive: -0.022
GFOD1 (UniProt Q9NXC2),log2 fold change,[5],inactive: -0.562
same,log2 fold change,[3],inactive: -0.201
same,log2 fold change,Nexturastat A,inactive: 0.053
same,log2 fold change,[6],inactive: -1.4
same,log2 fold change,givinostat,inactive: 0.262
GAL (UniProt P22466),log2 fold change,[1],inactive: 0.126
same,log2 fold change,[3],inactive: 0
same,log2 fold change,vemurafenib,inactive: -0.007
same,log2 fold change,givinostat,inactive: 0.151
same,log2 fold change,barasertib,inactive: -0.051
GCFC2 isoform 3 (UniProt P16383),log2 fold change,[5],inactive: -0.014
same,log2 fold change,vemurafenib,inactive: 0.149
same,log2 fold change,[6],inactive: -0.127
same,log2 fold change,givinostat,inactive: 0.139
GEMIN8 (UniProt Q9NWZ8),log2 fold change,[5],inactive: -0.136
same,log2 fold change,Nexturastat A,inactive: 0.156
same,log2 fold change,vemurafenib,inactive: 0
same,log2 fold change,[6],inactive: 0.19
same,log2 fold change,givinostat,inactive: -0.056
FRMD8 (UniProt Q9BZ67),log2 fold change,Nexturastat A,inactive: 0.195

# Reprinted at random: 6 entries already listed.
target,measurement,setting,value
FOXRED2 (UniProt Q8IWF2),log2 fold change,[3],inactive: -0.078
FRMPD3 (UniProt Q5JV73),log2 fold change,[1],inactive: -0.008
GBA2 (UniProt Q9HCG7),log2 fold change,[5],inactive: -0.043
FOXJ2 (UniProt Q9P0K8),log2 fold change,vemurafenib,inactive: 0.171
GATA1 (UniProt P15976),log2 fold change,barasertib,inactive: -0.034
FTSJ3 (UniProt Q8IY81),log2 fold change,[5],inactive: 0.059

# A portion taken from the entries so far, for reference:
target,measurement,setting,value
GGA2 (UniProt Q9UJY4),log2 fold change,[5],inactive: -0.047
same,log2 fold change,[3],inactive: 0.06
same,log2 fold change,Nexturastat A,active: 0.582
same,log2 fold change,vemurafenib,inactive: 0.053
same,log2 fold change,[6],inactive: 0.017
